Results: PubChem BioAssay AID1347423 (Functional Genomics Laboratory (NCATS/FGL), 2020)
Out of some 52,000 sequences screened, about 210 (0.4%) were called active.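 The calls were made as follows: active = gene whose silencing raises cell survival under the drug, median off-target-corrected z-score across its silencing RNAs 2 or more; inactive = the rest.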 Some of the results follow.

Assay: Resistance to Poly (ADP-Ribose) Polymerase inhibitor: Gene Identification via Genome-wide siRNA Screen
Details: mouse BRCA2 R2336H ES cells, olaparib, CellTiter-Glo viability; hits give high values
How it was run: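 Genome-wide siRNA screen (3 siRNAs/gene, 20 nM) in mouse ES cells carrying hypomorphic BRCA2 R2336H; olaparib 500 nM added 48 h post-transfection, CellTiter-Glo viability 72 h later. Normalized to plate-median negative control; MAD z-scores, gene median, seed-adjusted.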

Row | Sequence | z-score
1 | GGAUGAUGAGUUUCUCACATT against Pkd1l2 | inactive: 0.637
2 | GCAACAAUAUGAAUAAUGGTT against Robo1 | inactive: -0.425
3 | CGAUGUGGACGAGAAGCUATT against Gm592 | inactive: 0.203
4 | GGGAGAAACCUGUGCAAAUTT against Serpinb6c | inactive: 0.67
5 | CCUUCUAGUACAAAAGUUGTT against 5430433L24Rik | inactive: -0.985
6 | GGUGAUAGGAGAGAGAAAGTT against 5730472N09Rik | inactive: -1.23
7 | GUACCUCAGAGCUCUGCAUTT against Helt | inactive: -1.32
8 | GAUUUGAGACCCAGAUCAUTT against Gzmm | inactive: 2.56
9 | GGUCUUUUUGCCUGGUUUUTT against Akap10 | inactive: -0.251
10 | GGACAUAGAGAACAUCAUCTT against Cabp7 | inactive: -0.693
11 | GGAACCAUAAAUGUCACUUTT against 9130411I17Rik | inactive: 0.893
12 | GGAAGAGCUGGAGUCAGAUTT against BC023488 | inactive: -0.208
13 | GGAAAGGAGAACAAAGUUCTT against Tnfsf8 | inactive: 0.438
14 | GGAAGGUAUUACGUCAAAUTT against Sec24a | inactive: -0.0956
15 | GGGUUGUGGUUAUCAAAUATT against C030003D03Rik | inactive: 1.54
16 | GCAAGAACUAUUGCUAUUUTT against V1rh14 | inactive: -0.996
17 | GCGGCACUUUAUCAUUAUCTT against Hint3 | inactive: 0.0904
18 | GGUAUAUUGGGACCUUUAUTT against Fcgr1 | inactive: -0.849
19 | GGCAUUUCAUGUAGCUAAATT against 1700067I02Rik | inactive: 0.833
20 | GGUGGAGUCUACAAUUCUCTT against Ctsb | inactive: -0.176
21 | UCAGUCAUGCCUUGAGGCUTT against MGC69750 | inactive: -0.106
22 | GGUAAUUGGGCGACACCAUTT against Sh3bgrl2 | inactive: -0.827

5 entries from above, reformatted:
Row	Sequence	z-score
9	GGUCUUUUUGCCUGGUUUUTT against Akap10	inactive: -0.251
10	GGACAUAGAGAACAUCAUCTT against Cabp7	inactive: -0.693
11	GGAACCAUAAAUGUCACUUTT against 9130411I17Rik	inactive: 0.893
12	GGAAGAGCUGGAGUCAGAUTT against BC023488	inactive: -0.208
13	GGAAAGGAGAACAAAGUUCTT against Tnfsf8	inactive: 0.438

Going on with the list:

Row | Sequence | z-score
23 | GGAGGAAUUCUCCAAGCUGTT against Hsd3b1 | inactive: -1.41
24 | GCGACAUGGGUUAAAAGAATT against Nr4a3 | inactive: -0.49
25 | CCCUGGGAAGUGGAUUCAUTT against Olfr694 | inactive: 1.15
26 | GUGAGACUAAGUUACGCGATT against Olfr1501 | inactive: 0.734
27 | GGAGUUUUUACAGAAAAUGTT against Scin | inactive: 0.226
28 | CCAUUAGCUCCAUUCUUUCTT against Atp6v0d2 | inactive: -0.0501
29 | GGUUCAGAUCCAUCACUCGTT against Rab39b | inactive: -0.486
30 | GGUGUCAAAUAGCUGAAACTT against 6330412F12Rik | inactive: 0.121
31 | GCCAUCAGAAUUCGAUACATT against 2900092C05Rik | inactive: 0.74
32 | CCAGUUAUCUAUCUAGUGUTT against Sash1 | inactive: 0.47
33 | GCUUGUGGAUUUUUAGUGATT against Dufd1 | inactive: 0.261
34 | GGAUGAACUCCAGAACAUCTT against Gmfg | inactive: 0.405
35 | GGAUAACUUGCCAAAGUCUTT against Alas1 | inactive: -0.207
36 | GGGAAAAGGUCAGUGAAGUTT against 2310046O06Rik | inactive: -0.456
37 | GGCAAGUCCUAGUUUUGUUTT against Dfy | inactive: 0.508
38 | GGCAUUGUCCUACAUGAGCTT against Astl | inactive: 0.983
39 | GGAACAUCGUGACUUUAUATT against Kist | inactive: 1.36
40 | GGUGAGAACUUAAUCUUGGTT against Tax1bp3 | inactive: 0.147
41 | GGUGUCCUAUGAUUACAGCTT against A830059I20Rik | inactive: -1.62
42 | GGUUUUCUUCUUCAUAGCUTT against Olfr125 | inactive: 1.54
43 | CCUUUGUGUAUUCAAGGAGTT against AI194308 | inactive: -0.237
44 | GGAUCUGAAUGACUUUGUGTT against 5730467H21Rik | inactive: 0.632

Row | Sequence | z-score
45 | GCUACUAAUUGAUUAGUUGTT against 4930478A21Rik | inactive: 0.259
46 | GGAAAGAGGGAAACUAAUUTT against D10Bwg1364e | inactive: 0.0946
47 | CCACUAUAGUCCUUAGUGUTT against Ugt2b5 | inactive: -0.31
48 | CCGACGAUUCCUGAAGCUATT against Tada3l | inactive: -1.29
49 | GCUAAGACUCUUGAAUCAGTT against Suhw4 | inactive: 1.07
50 | GGGAAAUCAUCUUCUAUAATT against Pde6c | inactive: 0.744
51 | GCAAAAGACGAGUGAGCCUTT against Hoxa9 | inactive: 1.3
52 | CGGGCUGUUCAGAAAUCGATT against Trmt1 | inactive: 0.313
53 | GGAACAUUCUCGACUUCCCTT against Thop1 | inactive: -0.0863
54 | GCACUGGAAGGCCAAUUAGTT against BC022692 | inactive: -0.00984
55 | CCUGUGGAUUACGGCCUCATT against Ube3b | inactive: 0.122
56 | CCUGGUCUUACACCUGUCATT against Spire1 | inactive: -0.692
57 | GGAGAAGUUGAAGUCCUUCTT against Msr1 | inactive: -0.521
58 | GGCCUUGGGAAAUUACAGGTT against Wnt6 | inactive: -0.635
59 | ACACUGGAGUGAACAACGUTT against Gm741 | inactive: 0.71
60 | ACUAGACUGAACUACCUGATT against Gm1313 | inactive: 0.284
61 | CCCAUACUAAAAUUGUUGATT against Adam29 | active: 2.32
62 | GGUUGGAAAUUGGACAGGATT against Col6a3 | inactive: 0.0572
63 | GCUGAAUGAGAUCUUGAAATT against Hand2 | inactive: 1.44
64 | GGGUAUGGGAGAAUGAUUATT against Elovl3 | inactive: 0.693
65 | GGGAAAAGUGACUAGGCUUTT against Ngb | inactive: 0.706
66 | CCAGACACGCAUUGCGAAATT against H2-M2 | inactive: 0.844
